# Measurements reported in PubChem BioAssay AID743121 (NCATS, 2013).
# Assay: 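Partners whose loss is lethal together with topoisomerase I blockade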 (primary screen)
# Cell system: MDA-MB-231 cells, a human breast cancer line
# Reagents: single siRNA against human genes, 20 nM siRNA (0.8 pmol per well)
# Timing: 120 h (drug added 48 h after transfection, read 72 h later)
# Challenge: camptothecin 20 nM (about EC30) for 72 h; vehicle 0.1% DMSO in parallel plates
# Measurement: 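CellTiter-Glo ATP signal, scaled to control siRNA as percent viability; sensitisation given as log2 of untreated divided by camptothecin-treated viability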
# Reading the numbers: log2 vehicle/camptothecin viability: higher = stronger sensitisation to camptothecin
# Active means: 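Active genes have an RSA gene-level p-value below 0.001, computed from the ratios of their separate siRNAs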
# In all, the deposit lists about 26,000 reagents; shown is a part drawn at random. 167 of all reagents (0.63%) were called active. 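Calls are per gene from RSA p-values that are not deposited; an individual active-marked siRNA can sensitise only weakly.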 Reagents against one gene are numbered here. Further read-outs or replicates are left out here.
Target gene,reagent no.,log2 vehicle/camptothecin viability,call
ADGRF1,1,-0.0957,inactive
ADGRF1,2,-0.0478,inactive
ADGRF1,3,-0.406,inactive
ADGRF1,4,0.0825,inactive
SCNN1G,1,-0.477,inactive
SCNN1G,2,0.103,inactive
SCNN1G,3,-0.314,inactive
PITX3,1,-0.105,inactive
PITX3,2,-0.00508,inactive
PITX3,3,-0.598,inactive
CTDP1,1,-0.261,inactive
CTDP1,2,-0.075,inactive
CTDP1,3,-0.177,inactive
CTDP1,4,0.0188,inactive
RAB6C,1,-0.0404,inactive
RAB6C,2,0.139,inactive
RAB6C,3,-0.142,inactive
RAB6C,4,-0.247,inactive
SH2B2,1,-0.105,inactive
SH2B2,2,0.393,inactive
SH2B2,3,-0.381,inactive
SH2B2,4,-0.37,inactive

Quoted from the entries so far for reference:
Target gene,reagent no.,log2 vehicle/camptothecin viability,call
PITX3,1,-0.105,inactive
PITX3,2,-0.00508,inactive
PITX3,3,-0.598,inactive
CTDP1,1,-0.261,inactive
CTDP1,2,-0.075,inactive
CTDP1,3,-0.177,inactive
CTDP1,4,0.0188,inactive
RAB6C,1,-0.0404,inactive

Continued.
Target gene,reagent no.,log2 vehicle/camptothecin viability,call
MAFG,1,-0.0842,inactive
MAFG,2,1.03,inactive
MAFG,3,0.0119,inactive
MAFG,4,0.0097,inactive
LRPAP1,1,-0.689,inactive
LRPAP1,2,-0.349,inactive
LRPAP1,3,-0.415,inactive
KCND1,1,-0.119,inactive
KCND1,2,-0.156,inactive
KCND1,3,-0.38,inactive
KCND1,4,-0.351,inactive
GRK1,1,-0.0837,inactive
GRK1,2,-0.191,inactive
GRK1,3,-0.2,inactive
GRK1,4,-0.278,inactive
GORASP2,1,0.228,inactive
GORASP2,2,0.0171,inactive
GORASP2,3,-0.754,inactive
GORASP2,4,0.0811,inactive
TCFL5,1,-0.522,inactive
TCFL5,2,-0.0909,inactive
TCFL5,3,0.374,inactive
TCFL5,4,-0.0354,inactive
SLC6A2,1,0.151,inactive
SLC6A2,2,0.6,inactive
SLC6A2,3,0.103,inactive
SLC6A2,4,0.667,inactive
